The list shows a part of the results.
Columns and labels:
Test in all cases: log2 fold change, soluble protein after heating vs DMSO (PISA); higher = thermal stabilisation; K562 lysate, 10 uM; active = over 0.2 and 3.5 SD of the protein, either way, in both replicates (recomputed)
vemurafenib = compound: CCCS(=O)(=O)Nc1ccc(F)c(C(=O)c2c[nH]c3ncc(-c4ccc(Cl)cc4)cc23)c1F [vemurafenib]
How it was run: (§1)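 Log-two fold change in thermal stability relative to solvent controls is reported from duplicates. For each sample, crude K562 extract from dounce-homogenised pellets in PBS pH 7.4 with 1 mM MgCl2, at 1 mg/mL protein, was treated with 10 μM compound for 30 min. Aliquots heated for 3 min across 48°C-58°C were pooled, brought to 0.5% NP-40 at 4°C and cleared at 21,000xg for 90 min. The supernatant was quantified by TMTpro 16plex LC-MS/MS with channel sums equalised.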

Amino acid sequences for entries named in this document (tags omitted). A change or cut given only in a name is not applied to a line headed by its entry.
UniProt Q9NY61: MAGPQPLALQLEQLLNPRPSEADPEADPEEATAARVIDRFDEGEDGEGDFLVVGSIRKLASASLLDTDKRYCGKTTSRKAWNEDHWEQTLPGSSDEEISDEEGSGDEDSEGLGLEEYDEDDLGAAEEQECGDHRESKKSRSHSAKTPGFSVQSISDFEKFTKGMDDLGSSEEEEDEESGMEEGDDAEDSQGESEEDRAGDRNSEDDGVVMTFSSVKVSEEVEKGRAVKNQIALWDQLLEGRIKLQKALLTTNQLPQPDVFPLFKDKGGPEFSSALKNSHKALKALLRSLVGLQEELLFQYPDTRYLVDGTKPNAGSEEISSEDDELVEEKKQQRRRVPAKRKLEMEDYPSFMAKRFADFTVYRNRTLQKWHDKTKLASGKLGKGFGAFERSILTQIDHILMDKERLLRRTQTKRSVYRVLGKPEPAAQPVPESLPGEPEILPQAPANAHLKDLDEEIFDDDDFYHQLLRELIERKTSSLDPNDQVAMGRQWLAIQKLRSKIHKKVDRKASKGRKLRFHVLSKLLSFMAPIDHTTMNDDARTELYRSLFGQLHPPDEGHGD
UniProt Q5VST6: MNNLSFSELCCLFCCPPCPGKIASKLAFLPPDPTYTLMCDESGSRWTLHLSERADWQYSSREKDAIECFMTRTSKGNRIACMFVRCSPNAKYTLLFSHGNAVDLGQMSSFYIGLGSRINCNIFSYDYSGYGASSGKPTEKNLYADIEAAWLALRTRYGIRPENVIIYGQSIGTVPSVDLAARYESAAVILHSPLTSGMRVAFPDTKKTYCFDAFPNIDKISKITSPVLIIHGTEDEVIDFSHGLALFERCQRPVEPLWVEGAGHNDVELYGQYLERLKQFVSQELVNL
UniProt P24752: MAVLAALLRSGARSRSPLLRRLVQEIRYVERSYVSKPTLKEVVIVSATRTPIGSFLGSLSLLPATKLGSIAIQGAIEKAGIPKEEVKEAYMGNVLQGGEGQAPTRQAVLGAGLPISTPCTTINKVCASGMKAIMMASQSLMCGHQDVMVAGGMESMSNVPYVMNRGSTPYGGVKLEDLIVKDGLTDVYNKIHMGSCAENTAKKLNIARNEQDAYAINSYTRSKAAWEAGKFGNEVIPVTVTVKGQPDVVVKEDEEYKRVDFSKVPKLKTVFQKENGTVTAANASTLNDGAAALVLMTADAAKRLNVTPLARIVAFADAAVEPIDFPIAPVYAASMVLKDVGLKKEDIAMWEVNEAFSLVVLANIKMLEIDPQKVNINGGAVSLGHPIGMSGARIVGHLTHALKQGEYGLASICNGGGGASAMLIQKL
UniProt P28288: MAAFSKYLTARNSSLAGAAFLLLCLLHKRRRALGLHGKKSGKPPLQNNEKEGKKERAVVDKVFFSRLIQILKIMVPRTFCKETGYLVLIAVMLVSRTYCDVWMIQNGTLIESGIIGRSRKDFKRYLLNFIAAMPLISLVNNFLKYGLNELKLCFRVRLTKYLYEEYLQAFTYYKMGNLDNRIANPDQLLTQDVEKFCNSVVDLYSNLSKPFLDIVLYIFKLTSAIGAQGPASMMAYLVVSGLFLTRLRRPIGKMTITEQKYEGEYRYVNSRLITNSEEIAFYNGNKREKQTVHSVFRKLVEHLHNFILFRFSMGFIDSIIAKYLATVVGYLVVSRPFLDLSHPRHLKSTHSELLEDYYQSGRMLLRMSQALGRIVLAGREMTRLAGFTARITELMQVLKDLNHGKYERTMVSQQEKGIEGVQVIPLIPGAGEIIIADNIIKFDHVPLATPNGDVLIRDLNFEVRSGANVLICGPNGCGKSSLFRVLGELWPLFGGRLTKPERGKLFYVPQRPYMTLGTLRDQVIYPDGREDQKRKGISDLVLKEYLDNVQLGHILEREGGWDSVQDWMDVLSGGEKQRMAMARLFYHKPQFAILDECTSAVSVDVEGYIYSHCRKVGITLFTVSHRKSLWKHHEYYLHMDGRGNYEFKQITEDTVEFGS
UniProt P78363: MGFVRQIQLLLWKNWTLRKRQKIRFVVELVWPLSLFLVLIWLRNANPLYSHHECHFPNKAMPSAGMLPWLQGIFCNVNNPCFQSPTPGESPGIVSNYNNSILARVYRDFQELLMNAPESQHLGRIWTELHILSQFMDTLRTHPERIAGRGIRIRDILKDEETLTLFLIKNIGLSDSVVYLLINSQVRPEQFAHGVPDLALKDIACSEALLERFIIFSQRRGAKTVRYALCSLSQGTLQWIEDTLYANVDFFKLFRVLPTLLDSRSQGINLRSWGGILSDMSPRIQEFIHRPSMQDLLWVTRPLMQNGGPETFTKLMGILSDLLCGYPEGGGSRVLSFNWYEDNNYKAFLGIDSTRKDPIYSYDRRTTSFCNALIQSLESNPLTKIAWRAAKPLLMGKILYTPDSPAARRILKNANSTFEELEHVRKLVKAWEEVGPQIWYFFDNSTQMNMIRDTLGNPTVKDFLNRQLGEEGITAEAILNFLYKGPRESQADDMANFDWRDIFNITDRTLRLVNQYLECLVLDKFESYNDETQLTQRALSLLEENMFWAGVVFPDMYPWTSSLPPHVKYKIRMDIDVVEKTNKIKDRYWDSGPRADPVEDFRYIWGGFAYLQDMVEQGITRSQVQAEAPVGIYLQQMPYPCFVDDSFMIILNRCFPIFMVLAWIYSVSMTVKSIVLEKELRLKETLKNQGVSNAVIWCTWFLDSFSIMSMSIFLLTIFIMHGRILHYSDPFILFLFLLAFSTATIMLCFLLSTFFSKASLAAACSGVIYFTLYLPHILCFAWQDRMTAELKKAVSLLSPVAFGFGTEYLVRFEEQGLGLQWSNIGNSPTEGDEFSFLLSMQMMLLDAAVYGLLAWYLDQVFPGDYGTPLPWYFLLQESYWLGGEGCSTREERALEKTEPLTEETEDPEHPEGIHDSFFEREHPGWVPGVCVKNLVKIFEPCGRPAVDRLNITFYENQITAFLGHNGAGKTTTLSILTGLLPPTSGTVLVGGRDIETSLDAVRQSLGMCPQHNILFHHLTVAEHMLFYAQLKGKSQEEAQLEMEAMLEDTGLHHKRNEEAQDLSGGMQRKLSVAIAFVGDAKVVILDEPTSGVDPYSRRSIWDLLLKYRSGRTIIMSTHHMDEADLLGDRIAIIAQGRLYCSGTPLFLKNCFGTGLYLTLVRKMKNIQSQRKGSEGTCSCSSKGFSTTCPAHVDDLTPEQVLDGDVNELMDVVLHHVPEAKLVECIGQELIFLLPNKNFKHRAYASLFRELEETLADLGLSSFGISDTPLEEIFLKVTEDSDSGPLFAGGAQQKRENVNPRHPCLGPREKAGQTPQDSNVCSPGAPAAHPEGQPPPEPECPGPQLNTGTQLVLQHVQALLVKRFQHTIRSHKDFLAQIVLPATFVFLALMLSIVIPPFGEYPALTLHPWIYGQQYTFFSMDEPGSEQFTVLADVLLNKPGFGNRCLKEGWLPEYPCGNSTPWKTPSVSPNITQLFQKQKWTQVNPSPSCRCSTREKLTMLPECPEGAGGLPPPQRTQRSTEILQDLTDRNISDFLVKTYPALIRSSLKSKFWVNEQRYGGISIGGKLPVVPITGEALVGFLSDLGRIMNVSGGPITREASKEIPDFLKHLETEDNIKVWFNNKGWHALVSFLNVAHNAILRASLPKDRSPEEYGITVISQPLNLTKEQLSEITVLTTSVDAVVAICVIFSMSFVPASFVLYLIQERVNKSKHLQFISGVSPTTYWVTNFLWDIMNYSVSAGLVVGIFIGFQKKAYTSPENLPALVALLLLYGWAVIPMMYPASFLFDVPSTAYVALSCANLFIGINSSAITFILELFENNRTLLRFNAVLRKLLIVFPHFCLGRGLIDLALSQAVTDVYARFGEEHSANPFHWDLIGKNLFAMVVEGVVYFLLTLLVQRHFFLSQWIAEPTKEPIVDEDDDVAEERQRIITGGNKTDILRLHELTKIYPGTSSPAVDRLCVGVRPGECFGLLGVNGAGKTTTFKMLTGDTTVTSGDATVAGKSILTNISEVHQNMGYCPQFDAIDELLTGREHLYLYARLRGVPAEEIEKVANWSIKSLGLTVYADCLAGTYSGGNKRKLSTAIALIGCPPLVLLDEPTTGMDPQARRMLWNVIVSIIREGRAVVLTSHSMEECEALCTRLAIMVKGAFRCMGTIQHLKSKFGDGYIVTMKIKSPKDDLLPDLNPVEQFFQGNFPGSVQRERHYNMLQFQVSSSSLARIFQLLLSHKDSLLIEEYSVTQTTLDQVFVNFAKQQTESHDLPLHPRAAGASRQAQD
UniProt Q8NFV4: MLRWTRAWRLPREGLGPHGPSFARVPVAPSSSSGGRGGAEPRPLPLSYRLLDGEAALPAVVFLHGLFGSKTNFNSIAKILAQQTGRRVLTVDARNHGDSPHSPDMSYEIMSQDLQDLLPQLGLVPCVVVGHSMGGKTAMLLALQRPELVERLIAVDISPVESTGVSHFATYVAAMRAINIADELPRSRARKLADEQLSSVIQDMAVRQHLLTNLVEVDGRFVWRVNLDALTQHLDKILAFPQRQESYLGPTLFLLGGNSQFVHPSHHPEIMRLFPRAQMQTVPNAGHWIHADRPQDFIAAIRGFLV
UniProt Q9NUT2: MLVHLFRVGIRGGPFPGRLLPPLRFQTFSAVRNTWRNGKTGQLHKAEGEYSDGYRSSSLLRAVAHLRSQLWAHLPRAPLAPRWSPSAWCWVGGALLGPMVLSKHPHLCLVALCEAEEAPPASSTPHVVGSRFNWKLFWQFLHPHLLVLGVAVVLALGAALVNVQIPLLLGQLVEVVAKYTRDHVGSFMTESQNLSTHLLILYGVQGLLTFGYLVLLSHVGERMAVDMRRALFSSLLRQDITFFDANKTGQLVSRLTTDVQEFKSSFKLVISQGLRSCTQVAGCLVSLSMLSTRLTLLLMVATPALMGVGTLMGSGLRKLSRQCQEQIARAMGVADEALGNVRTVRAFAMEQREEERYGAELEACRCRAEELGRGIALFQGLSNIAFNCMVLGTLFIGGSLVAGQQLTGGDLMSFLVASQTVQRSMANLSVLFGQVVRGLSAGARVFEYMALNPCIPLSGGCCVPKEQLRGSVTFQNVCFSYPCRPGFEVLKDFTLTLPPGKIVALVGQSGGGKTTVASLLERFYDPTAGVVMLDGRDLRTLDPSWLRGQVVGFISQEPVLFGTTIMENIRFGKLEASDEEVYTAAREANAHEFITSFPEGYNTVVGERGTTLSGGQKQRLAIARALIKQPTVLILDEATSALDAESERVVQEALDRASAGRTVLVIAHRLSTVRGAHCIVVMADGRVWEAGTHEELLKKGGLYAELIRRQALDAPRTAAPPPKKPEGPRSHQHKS
UniProt P09110: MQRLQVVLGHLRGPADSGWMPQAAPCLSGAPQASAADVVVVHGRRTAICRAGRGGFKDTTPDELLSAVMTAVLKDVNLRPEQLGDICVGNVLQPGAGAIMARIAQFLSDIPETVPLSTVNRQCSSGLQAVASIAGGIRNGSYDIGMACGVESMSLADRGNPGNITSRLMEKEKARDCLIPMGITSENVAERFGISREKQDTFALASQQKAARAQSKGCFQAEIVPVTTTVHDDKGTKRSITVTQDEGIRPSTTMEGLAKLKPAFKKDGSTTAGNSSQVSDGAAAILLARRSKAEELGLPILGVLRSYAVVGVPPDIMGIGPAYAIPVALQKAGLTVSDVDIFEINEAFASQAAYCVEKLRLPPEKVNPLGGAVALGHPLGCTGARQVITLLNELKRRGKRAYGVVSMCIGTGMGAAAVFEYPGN
UniProt Q9NUQ8: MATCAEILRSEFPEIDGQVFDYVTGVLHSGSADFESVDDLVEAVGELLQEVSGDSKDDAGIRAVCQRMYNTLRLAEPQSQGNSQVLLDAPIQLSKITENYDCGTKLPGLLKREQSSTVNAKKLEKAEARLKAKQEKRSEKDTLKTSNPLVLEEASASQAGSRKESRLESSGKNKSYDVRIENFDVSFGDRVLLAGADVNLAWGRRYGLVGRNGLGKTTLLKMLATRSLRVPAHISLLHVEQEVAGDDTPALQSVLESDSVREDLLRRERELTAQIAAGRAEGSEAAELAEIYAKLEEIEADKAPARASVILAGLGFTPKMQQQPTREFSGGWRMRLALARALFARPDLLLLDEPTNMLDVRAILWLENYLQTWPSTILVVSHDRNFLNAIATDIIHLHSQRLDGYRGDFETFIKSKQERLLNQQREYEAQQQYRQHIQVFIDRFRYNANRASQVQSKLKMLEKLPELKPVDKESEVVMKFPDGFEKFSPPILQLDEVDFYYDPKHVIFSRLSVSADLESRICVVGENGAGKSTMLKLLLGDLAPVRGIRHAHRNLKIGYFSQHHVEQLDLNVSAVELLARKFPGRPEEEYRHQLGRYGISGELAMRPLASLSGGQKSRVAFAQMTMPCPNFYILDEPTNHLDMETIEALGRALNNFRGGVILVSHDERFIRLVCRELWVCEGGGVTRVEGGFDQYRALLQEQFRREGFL

[1] = compound: CCCS(=O)(=O)Nc1ccc(F)c(C(=O)c2c[nH]c3ncc(Cl)cc23)c1F
How it was run: as §1

barasertib = compound: CCN(CCCOc1ccc2c(Nc3cc(CC(=O)Nc4cccc(F)c4)[nH]n3)ncnc2c1)CCOP(=O)(O)O [barasertib]
How it was run: as §1

[2] = compound: CC[C@@H]1C(=O)N(C)c2cnc(Nc3ccc(C(=O)NC4CCN(C)CC4)cc3OC)nc2N1C1CCCC1
How it was run: as §1

volasertib = compound: CC[C@@H]1C(=O)N(C)c2cnc(Nc3ccc(C(=O)N[C@H]4CC[C@H](N5CCN(CC6CC6)CC5)CC4)cc3OC)nc2N1C(C)C [volasertib]
How it was run: as §1

[3] = compound: CCn1c(C(=O)N(C2CC2)C2CC2)cc2c3c(ncn3C)c(Nc3cc(C)n(C)n3)nc21
How it was run: as §1

[4] = compound: CCn1cc(-c2ccnc3[nH]c(-c4cccc(CN(C)C)c4)cc23)c(-c2ccc(NC(=O)N(C)C)cc2)n1
How it was run: as §1

[5] = compound: CN1CCC(CNc2ccc3ncc(-c4cccc(OC(F)(F)F)c4)n3n2)CC1
How it was run: as §1

saracatinib = compound: CN1CCN(CCOc2cc(OC3CCOCC3)c3c(Nc4c(Cl)ccc5c4OCO5)ncnc3c2)CC1 [saracatinib]
How it was run: as §1

sotrastaurin = compound: CN1CCN(c2nc(C3=C(c4c[nH]c5ccccc45)C(=O)NC3=O)c3ccccc3n2)CC1 [sotrastaurin]
How it was run: as §1

alvocidib = compound: CN1CC[C@H](c2c(O)cc(O)c3c(=O)cc(-c4ccccc4Cl)oc23)[C@H](O)C1 [alvocidib]
How it was run: as §1

Tubastatin A = compound: CN1CCc2c(c3ccccc3n2Cc2ccc(C(=O)NO)cc2)C1 [Tubastatin A]
How it was run: as §1

[6] = compound: CNC(=O)C1=CC=CC=C1NC2=NC(=NC=C2Cl)NC3=C(C=C(C=C3)N4CCOCC4)OC
How it was run: as §1

defactinib = compound: CNC(=O)c1ccc(Nc2ncc(C(F)(F)F)c(NCc3nccnc3N(C)S(C)(=O)=O)n2)cc1 [defactinib]
How it was run: as §1

[7] = compound: CNc1nc(-c2ccc3c(N)n[nH]c3c2)cc(N2C[C@@H](C(=O)NC3CCCCC3)CC[C@H]2C)n1
How it was run: as §1

encorafenib = compound: COC(=O)N[C@@H](C)CNc1nccc(-c2cn(C(C)C)nc2-c2cc(Cl)cc(NS(C)(=O)=O)c2F)n1 [encorafenib]
How it was run: as §1

[8] = compound: COC(=O)[C@H](CCSC)NC(=O)C1=C(C=C(C=C1)NC[C@H](CS)N)C2=CC=CC=C2
How it was run: as §1

alisertib = compound: COc1cc(Nc2ncc3c(n2)-c2ccc(Cl)cc2C(c2c(F)cccc2OC)=NC3)ccc1C(=O)O [alisertib]
How it was run: as §1

[9] = compound: COc1cc2nc(-c3cc(F)ccc3O)nc(N[C@@H]3CNC[C@H]3C(C)(C)O)c2cc1OC
How it was run: as §1

gefitinib = compound: COc1cc2ncnc(Nc3ccc(F)c(Cl)c3)c2cc1OCCCN1CCOCC1 [gefitinib]
How it was run: as §1

Target | log2 fold change (vemurafenib) | log2 fold change [1] | log2 fold change (barasertib) | log2 fold change [2] | log2 fold change (volasertib) | log2 fold change [3] | log2 fold change [4] | log2 fold change [5] | log2 fold change (saracatinib) | log2 fold change (sotrastaurin) | log2 fold change (alvocidib) | log2 fold change (Tubastatin A) | log2 fold change [6] | log2 fold change (defactinib) | log2 fold change [7] | log2 fold change (encorafenib) | log2 fold change [8] | log2 fold change (alisertib) | log2 fold change [9] | log2 fold change (gefitinib)
AATF (UniProt Q9NY61) | inactive: 0.151 | inactive: 0.048 | inactive: -0.109 | inactive: -0.002 | inactive: 0.008 | inactive: 0.001 | inactive: -0.232 | inactive: -0.079 | inactive: -0.007 | inactive: 0.055 | inactive: 0.06 | inactive: -0.013 | inactive: -0.095 | inactive: 0.01 | inactive: -0.052 | inactive: 0.01 | inactive: 0.138 | inactive: -0.121 | inactive: 0.023 | inactive: -0.014
AARS (UniProt P49588) | inactive: -0.007 | inactive: -0.009 | inactive: -0.03 | inactive: -0.044 | inactive: -0.03 | inactive: 0.025 | inactive: 0.019 | inactive: -0.002 | inactive: -0.007 | inactive: 0.003 | inactive: 0 | inactive: -0.011 | inactive: -0.016 | inactive: -0.011 | inactive: -0.024 | inactive: -0.031 | inactive: 0.023 | inactive: 0.01 | inactive: -0.009 | inactive: -0.018
A2M (UniProt P01023) | inactive: 0.059 | inactive: 0.063 | inactive: -0.032 | inactive: 0.041 | inactive: -0.008 | inactive: -0.06 | inactive: -0.042 | inactive: 0.038 | inactive: 0.006 | inactive: -0.074 | inactive: -0.051 | inactive: 0.01 | inactive: 0.036 | inactive: 0.003 | inactive: -0.056 | inactive: -0.024 | inactive: -0.066 | inactive: -0.021 | inactive: -0.003 | inactive: -0.019
ABHD17B (UniProt Q5VST6) | inactive: 0.051 | inactive: -0.002 | inactive: -0.073 | inactive: 0.234 | inactive: 0.094 | inactive: -0.034 | inactive: 0.08 | inactive: 0.054 | inactive: 0.092 | inactive: -0.002 | inactive: 0 | inactive: -0.016 | inactive: -0.003 | inactive: 0.064 | inactive: -0.099 | inactive: 0.059 | active: -0.642 | inactive: 0.06 | inactive: -0.011 | inactive: 0.043
ACAT1 (UniProt P24752) | inactive: 0 | inactive: -0.016 | inactive: 0.006 | inactive: 0.033 | inactive: 0.019 | inactive: 0.003 | inactive: -0.038 | inactive: -0.006 | inactive: 0.011 | inactive: 0.007 | inactive: 0.018 | inactive: -0.136 | inactive: 0.001 | inactive: -0.027 | inactive: 0.05 | inactive: -0.033 | inactive: 0.04 | inactive: 0 | inactive: -0.006 | inactive: -0.06
ABL2 (UniProt P42684) | inactive: 0.233 | inactive: 0.222 | inactive: -0.002 | inactive: 0.11 | inactive: -0.05 | inactive: 0.009 | inactive: 0.039 | inactive: -0.128 | inactive: 0.254 | inactive: -0.02 | inactive: 0.007 | inactive: -0.04 | inactive: 0.082 | inactive: 0.066 | inactive: -0.108 | inactive: 0.092 | inactive: -0.068 | inactive: -0.123 | inactive: -0.009 | inactive: -0.176
ABRAXAS2 (UniProt Q15018) | inactive: -0.016 | inactive: -0.012 | inactive: -0.017 | inactive: 0.014 | inactive: -0.012 | inactive: 0.04 | inactive: 0.119 | inactive: -0.002 | inactive: 0.003 | inactive: -0.036 | inactive: 0.037 | inactive: 0.023 | inactive: 0.01 | inactive: 0.018 | inactive: -0.028 | inactive: 0.012 | inactive: 0.004 | inactive: -0.005 | inactive: -0.005 | inactive: -0.02
ABCD3 (UniProt P28288) | inactive: 0.078 | inactive: 0.058 | inactive: 0.053 | inactive: -0.077 | inactive: -0.029 | inactive: -0.07 | inactive: -0.054 | inactive: 0.044 | inactive: -0.071 | inactive: 0.073 | inactive: -0.064 | inactive: 0.1 | inactive: -0.114 | inactive: -0.019 | inactive: -0.048 | inactive: 0.028 | active: 0.444 | inactive: 0.044 | inactive: -0.013 | inactive: 0.145
ABCA4 (UniProt P78363) | inactive: 0.069 | inactive: -0.067 | inactive: 0.016 | inactive: 0.119 | inactive: -0.017 | inactive: -0.093 | inactive: -0.29 | inactive: 0.091 | inactive: 0.006 | inactive: -0.032 | inactive: -0.047 | inactive: 0.135 | inactive: 0.013 | inactive: 0.004 | inactive: 0.246 | inactive: -0.066 | inactive: 0.018 | inactive: -0.058 | inactive: 0.096 | inactive: 0.065
ABT1 (UniProt Q9ULW3) | inactive: 0.191 | inactive: 0.015 | inactive: -0.042 | inactive: 0.007 | inactive: -0.046 | inactive: 0.004 | inactive: -0.002 | inactive: -0.017 | inactive: 0.021 | inactive: 0.105 | inactive: -0.01 | inactive: -0.024 | inactive: -0.118 | inactive: -0.015 | inactive: 0.013 | inactive: -0.016 | inactive: -0.003 | inactive: 0.012 | inactive: -0.113 | inactive: -0.002
ABHD11 (UniProt Q8NFV4) | inactive: 0.062 | inactive: -0.051 | inactive: 0.093 | inactive: -0.029 | inactive: -0.082 | inactive: 0.028 | inactive: -0.109 | inactive: 0.024 | inactive: -0.026 | inactive: -0.016 | inactive: 0 | inactive: 0.032 | inactive: -0.066 | inactive: 0.034 | inactive: 0.087 | inactive: -0.028 | inactive: 0.173 | inactive: -0.027 | inactive: 0.022 | inactive: 0.004
ABCB8 (UniProt Q9NUT2) | inactive: 0.047 | inactive: 0.037 | inactive: 0.113 | inactive: -0.064 | inactive: -0.019 | inactive: 0.002 | inactive: 0.036 | inactive: -0.004 | inactive: -0.007 | inactive: 0.046 | inactive: 0.004 | inactive: -0.109 | inactive: 0.081 | inactive: 0.04 | inactive: 0.011 | inactive: 0.047 | inactive: -0.008 | inactive: -0.122 | inactive: -0.018 | inactive: -0.136
ACAA1 (UniProt P09110) | inactive: 0.034 | inactive: 0.033 | inactive: -0.027 | inactive: 0.006 | inactive: 0.036 | inactive: 0.001 | inactive: -0.049 | inactive: 0.039 | inactive: 0.002 | inactive: -0.004 | inactive: -0.027 | inactive: 0.043 | inactive: 0.008 | inactive: 0.008 | inactive: 0.093 | inactive: -0.021 | inactive: 0.012 | inactive: -0.035 | inactive: 0.01 | inactive: 0.015
ACACB (UniProt O00763) | inactive: 0.012 | inactive: 0.028 | inactive: 0.024 | inactive: -0.113 | inactive: -0.11 | inactive: 0.038 | inactive: -0.14 | inactive: 0.027 | inactive: 0.018 | inactive: 0.037 | inactive: -0.04 | inactive: -0.153 | inactive: 0.007 | inactive: 0.019 | inactive: -0.043 | inactive: 0.127 | inactive: -0.156 | inactive: 0.016 | inactive: 0.006 | inactive: 0.006
ABCF3 (UniProt Q9NUQ8) | inactive: 0.013 | inactive: 0.037 | inactive: 0.03 | inactive: -0.079 | inactive: -0.099 | inactive: 0.044 | inactive: 0.015 | inactive: -0.059 | inactive: -0.006 | inactive: 0.033 | inactive: 0.013 | inactive: -0.172 | inactive: 0.029 | inactive: -0.01 | inactive: -0.01 | inactive: -0.031 | inactive: 0.11 | inactive: 0.004 | inactive: -0.003 | inactive: -0.006
ACADSB (UniProt P45954) | inactive: 0.048 | inactive: 0.018 | inactive: 0.024 | inactive: 0.017 | inactive: -0.03 | inactive: 0.015 | inactive: 0.011 | inactive: -0.012 | inactive: -0.185 | inactive: 0.031 | inactive: 0.026 | inactive: -0.005 | inactive: -0.035 | inactive: 0.077 | inactive: 0.082 | inactive: 0.027 | inactive: 0.068 | inactive: 0.023 | inactive: -0.047 | inactive: 0

An excerpt of these results, tab-delimited:
Target	log2 fold change (vemurafenib)	log2 fold change [1]	log2 fold change (barasertib)	log2 fold change [2]	log2 fold change (volasertib)	log2 fold change [3]	log2 fold change [4]	log2 fold change [5]	log2 fold change (saracatinib)	log2 fold change (sotrastaurin)	log2 fold change (alvocidib)	log2 fold change (Tubastatin A)	log2 fold change [6]	log2 fold change (defactinib)	log2 fold change [7]	log2 fold change (encorafenib)	log2 fold change [8]	log2 fold change (alisertib)	log2 fold change [9]	log2 fold change (gefitinib)
ABHD17B (UniProt Q5VST6)	inactive: 0.051	inactive: -0.002	inactive: -0.073	inactive: 0.234	inactive: 0.094	inactive: -0.034	inactive: 0.08	inactive: 0.054	inactive: 0.092	inactive: -0.002	inactive: 0	inactive: -0.016	inactive: -0.003	inactive: 0.064	inactive: -0.099	inactive: 0.059	active: -0.642	inactive: 0.06	inactive: -0.011	inactive: 0.043
ACAT1 (UniProt P24752)	inactive: 0	inactive: -0.016	inactive: 0.006	inactive: 0.033	inactive: 0.019	inactive: 0.003	inactive: -0.038	inactive: -0.006	inactive: 0.011	inactive: 0.007	inactive: 0.018	inactive: -0.136	inactive: 0.001	inactive: -0.027	inactive: 0.05	inactive: -0.033	inactive: 0.04	inactive: 0	inactive: -0.006	inactive: -0.06
ABL2 (UniProt P42684)	inactive: 0.233	inactive: 0.222	inactive: -0.002	inactive: 0.11	inactive: -0.05	inactive: 0.009	inactive: 0.039	inactive: -0.128	inactive: 0.254	inactive: -0.02	inactive: 0.007	inactive: -0.04	inactive: 0.082	inactive: 0.066	inactive: -0.108	inactive: 0.092	inactive: -0.068	inactive: -0.123	inactive: -0.009	inactive: -0.176
